Laboratory results: PubChem BioAssay AID1259308 (NCATS, 2017)
Aim: 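Candidate targets for better recombinant protein yield in mammalian cells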 (primary screen). System: human HEK293 embryonic kidney cells stably expressing firefly luciferase (HEK-CMV-Luc2-Hygro). Reagent: single siRNA against human genes, 0.8 pmol siRNA per well. Time to read-out: 72 h. Detection: 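Reporter luminescence and viable-cell signal on separate replicate plates, given as percent of non-targeting control and median/MAD z-scores, plus per-cell luciferase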. Reading the numbers: total luciferase, z-score and total luciferase, % of control: higher = more reporter protein produced; luciferase per cell, z-score: higher = more reporter output per viable cell; viable cells, % of control: higher = more viable cells. Active means: 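Active when the median/MAD z-score for overall luciferase is greater than 3; a gene was taken forward for validation with new siRNAs if at least two of its three siRNAs passed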. Calls: active = raised luciferase; inactive = no rise.
This is an unselected part of about 59,000 reagents tested. About 1,510 of all reagents (2.6%) count as active. 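Calls use total luciferase alone and ignore viability, so some active siRNAs may act by altering cell number.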 A number with no mark means an inactive call. Reagents against one gene are numbered here.

gene knocked down	reagent no.	total luciferase, z-score	total luciferase, % of control	luciferase per cell, z-score	viable cells, % of control
FAM78A (family with sequence similarity 78 member A)	1	-1.23	57.5	-1.34	91.4
FAM78A (family with sequence similarity 78 member A)	2	0.891	99.6	1.39	77.1
FAM78A (family with sequence similarity 78 member A)	3	-0.464	72.7	-0.638	96
DOK2 (docking protein 2)	1	0.329	88.4	-0.704	119
DOK2 (docking protein 2)	2	-0.232	77.3	0.496	75.8
DOK2 (docking protein 2)	3	-0.201	77.9	0.243	81.6
ADRA1A (adrenoceptor alpha 1A)	1	0.42	90.2	0.17	96.4
ADRA1A (adrenoceptor alpha 1A)	2	-0.435	73.2	-0.569	95.1
ADRA1A (adrenoceptor alpha 1A)	3	0.416	90.2	0.663	84.6
RSBN1L (round spermatid basic protein 1 like)	1	0.555	92.9	-0.0607	106
RSBN1L (round spermatid basic protein 1 like)	2	-1.41	53.8	-1.63	92.5
RSBN1L (round spermatid basic protein 1 like)	3	1.13	104	2.01	68.8
MMP24 (matrix metallopeptidase 24)	1	0.68	95.4	1.23	77.2
MMP24 (matrix metallopeptidase 24)	2	-0.44	73.1	0.139	78.8
MMP24 (matrix metallopeptidase 24)	3	5.03 (active)	182	3.54	80
OR51I2 (olfactory receptor family 51 subfamily I member 2)	1	0.886	99.5	0.237	104
OR51I2 (olfactory receptor family 51 subfamily I member 2)	2	-0.735	67.3	-0.53	86.4
OR51I2 (olfactory receptor family 51 subfamily I member 2)	3	0.812	98	1.08	82.3
TOP1 (DNA topoisomerase I)	1	0.786	97.5	0.328	99.9
TOP1 (DNA topoisomerase I)	2	-0.632	69.3	-0.518	88.8
TOP1 (DNA topoisomerase I)	3	-0.117	79.6	0.367	80.7
LOC729268 (retired record)	1	-0.657	68.8	-0.584	89.7
LOC729268 (retired record)	2	-0.443	73.1	-0.293	88.2
LOC729268 (retired record)	3	-0.838	65.2	0.0611	71.7
FXN (frataxin)	1	1.58	113	1.64	82.2
FXN (frataxin)	2	-2.23	37.5	-2.34	77.6
FXN (frataxin)	3	-0.0624	80.6	-0.0834	92.1

A few values from above:
Value of ADRA1A (adrenoceptor alpha 1A) #1 under “viable cells, % of control”: 96.4
DOK2 (docking protein 2) #2, total luciferase, % of control: 77.3
Result for RSBN1L (round spermatid basic protein 1 like) #1 in “total luciferase, z-score”: 0.555
FAM78A (family with sequence similarity 78 member A) #2, viable cells, % of control → 77.1

The results go on.
gene knocked down	reagent no.	total luciferase, z-score	total luciferase, % of control	luciferase per cell, z-score	viable cells, % of control
FABP6 (fatty acid binding protein 6)	1	0.0773	83.4	0.255	87.2
FABP6 (fatty acid binding protein 6)	2	-0.453	72.9	-0.383	90.1
FABP6 (fatty acid binding protein 6)	3	-0.0742	80.4	0.531	78.1
ADAM11 (ADAM metallopeptidase domain 11)	1	0.709	96	0.227	101
ADAM11 (ADAM metallopeptidase domain 11)	2	0.0499	82.9	-0.0249	93.2
ADAM11 (ADAM metallopeptidase domain 11)	3	1.83	118	2.07	76.7
SDAD1 (SDA1 domain containing 1)	1	-1.73	47.5	-0.668	63.3
SDAD1 (SDA1 domain containing 1)	2	-0.903	63.9	-0.661	85
SDAD1 (SDA1 domain containing 1)	3	-0.86	64.8	-0.932	92.5
ARSG (arylsulfatase G)	1	0.426	90.4	0.707	83.8
ARSG (arylsulfatase G)	2	-1.1	60	0.517	58.5
ARSG (arylsulfatase G)	3	0.0615	83.1	0.467	82.1
LTB (lymphotoxin beta)	1	2.01	122	1.55	90.5
LTB (lymphotoxin beta)	2	0.791	97.6	0.482	96.1
LTB (lymphotoxin beta)	3	-0.432	73.3	-0.448	92.2
OR4K13 (olfactory receptor family 4 subfamily K member 13)	1	0.132	84.5	0.126	91.4
OR4K13 (olfactory receptor family 4 subfamily K member 13)	2	-0.864	64.7	-1.32	102
OR4K13 (olfactory receptor family 4 subfamily K member 13)	3	-0.618	69.6	-0.635	91.9
TFPI2 (tissue factor pathway inhibitor 2)	1	-0.764	66.7	-0.14	77.3
TFPI2 (tissue factor pathway inhibitor 2)	2	-0.1	79.9	-0.873	112
TFPI2 (tissue factor pathway inhibitor 2)	3	1.31	108	0.697	100
OR2D2 (olfactory receptor family 2 subfamily D member 2)	1	-0.448	73	0.519	71.1
OR2D2 (olfactory receptor family 2 subfamily D member 2)	2	0.0269	82.4	0.467	81.4
OR2D2 (olfactory receptor family 2 subfamily D member 2)	3	-1.06	60.8	-0.437	76.2
FOXN1 (forkhead box N1)	1	-0.384	74.2	0.0615	81.6
FOXN1 (forkhead box N1)	2	-0.234	77.2	-0.709	104
FOXN1 (forkhead box N1)	3	6.27 (active)	207	3.23	98.6
CRLF3 (cytokine receptor like factor 3)	1	0.558	93	0.322	95.5
CRLF3 (cytokine receptor like factor 3)	2	0.00664	82	0.075	89.9
CRLF3 (cytokine receptor like factor 3)	3	-0.235	77.2	-0.4	95.9
